This is one part of the list.
Target: OsWRKY34 (Oryza sativa, UniProt Q0JBA9 1-250)
Experiment: protein-binding microarray (RPBM); PBS, 2% BSA, 51.3 ng/ul salmon testes DNA, 50 uM zinc acetate, 200 nM TF, 25 C, 1 h; high values mean tight binding
Conditions: protein: recombinant; tags: N-terminal polyhistidine and DsRed monomer fusion (pET32a); label: CyDye5-dUTP incorporated in the synthesized complementary strand; 3' TTTTT single-stranded linker to array surface; dsDNA, one strand shown
Summary of the method: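 For the binding signal, per-feature fluorescence intensity was read in arbitrary units on an Axon 4000B scanner. Before scanning, a 2% BSA-blocked custom Agilent array made double-stranded with Cy5-dUTP was washed after 1 h at 25 °C with 200 nM protein and 50 µM zinc acetate. The proteins were Ni–NTA-purified transcription factors with N-terminal polyhistidine and DsRed fusions, expressed in E. coli BL21-CodonPlus.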

Amino acid sequences for entries named in this document (tags omitted).
UniProt Q0JBA9, entry or part of it: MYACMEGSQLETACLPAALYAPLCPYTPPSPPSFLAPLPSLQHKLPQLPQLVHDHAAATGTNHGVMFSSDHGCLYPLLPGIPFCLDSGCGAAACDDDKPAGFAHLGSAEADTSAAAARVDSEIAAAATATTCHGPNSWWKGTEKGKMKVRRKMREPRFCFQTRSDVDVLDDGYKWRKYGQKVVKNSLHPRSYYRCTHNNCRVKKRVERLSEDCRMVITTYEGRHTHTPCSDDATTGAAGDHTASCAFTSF

Sequence | binding signal
AATTCTCTCTCTCTCTCTTCTATCCGTGCGCCTCAACTTTCGGAGTCACCTAGTGCAG | 14100 fluorescence intensity (a.u.)
TGGTGGTCTTCTTTATCTTTACACATTGCCTTTGGCTAACCGGAGTCACCTAGTGCAG | 10200 fluorescence intensity (a.u.)
CCACTTTCTCTCTCTCTCTCTCTCTCTCTCTCTCGTCGCGCGGAGTCACCTAGTGCAG | 8600 fluorescence intensity (a.u.)
TTGTTCAGTTGTGTCACCCCGGTCTCTAAACTTGGATTTGCGGAGTCACCTAGTGCAG | 9010 fluorescence intensity (a.u.)
TCGTTGACTTTCTTGCCGTCTCGCCGCCGCCGCCGCCATGCGGAGTCACCTAGTGCAG | 23600 fluorescence intensity (a.u.)
ACATGGGAATTTTGGTGGGATGGGGATGGGGAATTGACCTCGGAGTCACCTAGTGCAG | 14100 fluorescence intensity (a.u.)
CTTTTCTCTCTCTCGGTCTCTCTCCCTTGCTTCCCTCTCTCGGAGTCACCTAGTGCAG | 9150 fluorescence intensity (a.u.)
GCTACTACCACATTATTGTGCTTGTTTTTTATACATATTACGGAGTCACCTAGTGCAG | 10300 fluorescence intensity (a.u.)
TACTTATCCTGCGTTTCAAAGAGGACCTAAATCTTGTCTTCGGAGTCACCTAGTGCAG | 8700 fluorescence intensity (a.u.)
AATCTTTGACCCGCTGTCAGTTCATCATCCGTCTACTCTACGGAGTCACCTAGTGCAG | 9620 fluorescence intensity (a.u.)
TGTGTGATTGCTGTTCTTCTCTCTCGCGTCCACGTTCGCGCGGAGTCACCTAGTGCAG | 10500 fluorescence intensity (a.u.)
AGCGCCGCCGCCACCACCACCACCGCCACTGCCACTATACCGGAGTCACCTAGTGCAG | 9580 fluorescence intensity (a.u.)
TCGTAAGATGCTCTTTTTTTTCTCCTTATACACTCATCATCGGAGTCACCTAGTGCAG | 8900 fluorescence intensity (a.u.)
ATGCGCAGTCAGCTACTGTCTTGTTTCTGCCATCAAGCTTCGGAGTCACCTAGTGCAG | 9200 fluorescence intensity (a.u.)
CGTGCCACATAAACAGCCCATACCTCCTCATTGCCTCGCCCGGAGTCACCTAGTGCAG | 8400 fluorescence intensity (a.u.)
GGCGTATGTTGTTTAGGCCTCTATTCGTATATGCACTTCCCGGAGTCACCTAGTGCAG | 9060 fluorescence intensity (a.u.)
TACTGATCATGGCTGTTCTGAACCTTGTACTGTGCCATCTCGGAGTCACCTAGTGCAG | 9040 fluorescence intensity (a.u.)
TTTCCTTTACTTTGGTGGTTCTTTTTTTTTTCTTTGTTTCCGGAGTCACCTAGTGCAG | 11400 fluorescence intensity (a.u.)
AGTGGTTGTTTTCTTGGATGGTTGCCGCTGCGCCCTGACCCGGAGTCACCTAGTGCAG | 11000 fluorescence intensity (a.u.)
CACACGCACGCTACCCGAACTACTGAGTTCTCTATTAAATCGGAGTCACCTAGTGCAG | 8560 fluorescence intensity (a.u.)
ATTCCTAATGTTTGACTGACAGGTGGGGTCTGGTGAATTCCGGAGTCACCTAGTGCAG | 8290 fluorescence intensity (a.u.)

Sequence | binding signal
GCATCGTTCTCGTCGATTCCGAGCCCTCGTCGCGCATTTCCGGAGTCACCTAGTGCAG | 10100 fluorescence intensity (a.u.)
ATGCTTTGTTGACCTGTGGTCAATTTGTGTTTTTAGCCATCGGAGTCACCTAGTGCAG | 9080 fluorescence intensity (a.u.)
CCATTTTCGGCCCATTCCTTCCTCTTCTCTCTCCCTTGCGCGGAGTCACCTAGTGCAG | 8200 fluorescence intensity (a.u.)
TCACCTGGTCAGAACACATCTTCTTCCTCTTGCCAATTAACGGAGTCACCTAGTGCAG | 8080 fluorescence intensity (a.u.)
GTCGGCGCCCATAGTTTTTTTCCGCAAGGGTTTTCTACGTCGGAGTCACCTAGTGCAG | 8810 fluorescence intensity (a.u.)
GGGTTACGACTCCGACCAACCTCGCCGTCGCCAAGCTCGCCGGAGTCACCTAGTGCAG | 8090 fluorescence intensity (a.u.)
CCTCTTTTAGCATTTACCATCATTGCGTTCTATATTACATCGGAGTCACCTAGTGCAG | 8200 fluorescence intensity (a.u.)
CTCTCTCCTACTGTAGGCCACCACCACCGCGACCGCACGACGGAGTCACCTAGTGCAG | 9340 fluorescence intensity (a.u.)
AAAAATGACCAACGCAACTGTATTAGCGTGTGCTATCCACCGGAGTCACCTAGTGCAG | 9390 fluorescence intensity (a.u.)
CTCTCTCTCTCTCTCTCTATCTATCTGATCGTTAATCCTTCGGAGTCACCTAGTGCAG | 10200 fluorescence intensity (a.u.)
GCACTGTTTCTCAAGTTCTTGTATATTGGTCTGATTCTGTCGGAGTCACCTAGTGCAG | 8880 fluorescence intensity (a.u.)
CCGCTCGTCTTATTTGAAATTTTTCTATGATTAGTATTTTCGGAGTCACCTAGTGCAG | 10300 fluorescence intensity (a.u.)
CTGATCTTTTCTTTTTTCAGGTGTTTTGTTTTTGGCAGTACGGAGTCACCTAGTGCAG | 10600 fluorescence intensity (a.u.)
TAAGTACAGTTTTACACTATTCACGTCCAACGTTTGACCGCGGAGTCACCTAGTGCAG | 9900 fluorescence intensity (a.u.)
GAGCAATTTCCTTTTTTTTTAACCTGCTTTTTCTCTCTCTCGGAGTCACCTAGTGCAG | 9440 fluorescence intensity (a.u.)
CATCCTTCATCGTAGCACCCGTTTCTACCTACGCATTTTCCGGAGTCACCTAGTGCAG | 12500 fluorescence intensity (a.u.)
ACTTCCACACGGTGATCTGCAACTCAAAGTACTATCAGAACGGAGTCACCTAGTGCAG | 8180 fluorescence intensity (a.u.)
ATGATCAGATCACGTGCCTATGCAGAGCATCTTCTTGGTTCGGAGTCACCTAGTGCAG | 8040 fluorescence intensity (a.u.)
CCTTGTGGACACTTGTATTTGTCATGGGGTTTATAAAAAACGGAGTCACCTAGTGCAG | 8420 fluorescence intensity (a.u.)
TGGTACGTCATCCGTGTATGAGTCGGTTATTAAGTTTGTTCGGAGTCACCTAGTGCAG | 8690 fluorescence intensity (a.u.)
CTCGTCGGCTGGGTGGGTGTGGTGTGGGTGGCCACCGTCACGGAGTCACCTAGTGCAG | 15000 fluorescence intensity (a.u.)

Sequence | binding signal
AGTTGGATTTGCGGCTTTGGAAACTTTCTAGCTTCACTACCGGAGTCACCTAGTGCAG | 8680 fluorescence intensity (a.u.)
TGCTTTGCGTGTTTGTCTTTCAGGGTAGCTTTGAGGCTTTCGGAGTCACCTAGTGCAG | 9440 fluorescence intensity (a.u.)
CGTTGTCATTCATAGTGGTAGGTTCTCAGTTTTGCACTGACGGAGTCACCTAGTGCAG | 10700 fluorescence intensity (a.u.)
AGTTATCCTGTTCCCACGTAATGCTGTTATGTAGATTTTCCGGAGTCACCTAGTGCAG | 12200 fluorescence intensity (a.u.)
TGTTACATATTTCGCTTTTTTAACTTCCACTCCTATTATTCGGAGTCACCTAGTGCAG | 11900 fluorescence intensity (a.u.)
ATCCGCTTGTTCCTAGTTATTAATTAATTATCTTTTAAAACGGAGTCACCTAGTGCAG | 8710 fluorescence intensity (a.u.)
TGGGTCACTGTAATTTTCCTTTCGTACACATTTGGTCGCTCGGAGTCACCTAGTGCAG | 9260 fluorescence intensity (a.u.)
TCATCCTAGAACATCCATCAGATTGCTACATTCTGTCTAACGGAGTCACCTAGTGCAG | 8040 fluorescence intensity (a.u.)
TTCATGTTTTTACTCTTTTTATATATCATAAGCTTTGATTCGGAGTCACCTAGTGCAG | 8250 fluorescence intensity (a.u.)
CGTTTGATAGGCCATAGCCAATAATCTTCATGTTTCTTTCCGGAGTCACCTAGTGCAG | 9430 fluorescence intensity (a.u.)
CCTCTCTATTTCTCTCGTCAACAATTAGCGCTCTCTATTCCGGAGTCACCTAGTGCAG | 10100 fluorescence intensity (a.u.)
GGCAGCCGTGATCTTTGCGAGCATTCTTTCTTCCACTTAGCGGAGTCACCTAGTGCAG | 9640 fluorescence intensity (a.u.)
GCTAGCCAAATTGTGGTTTTATTTCATTGGCCAAAACTGTCGGAGTCACCTAGTGCAG | 8160 fluorescence intensity (a.u.)
TATAAGAGCTCACGCGGCCATGTCGTTCTTCGCGCGCGCTCGGAGTCACCTAGTGCAG | 12700 fluorescence intensity (a.u.)
AACCGCTTACATCATATATTATATTATTTTACTCGCTCTACGGAGTCACCTAGTGCAG | 9930 fluorescence intensity (a.u.)
TGTGTTGGCTGCCATCCTATGCACCTACCTACACCTCCCTCGGAGTCACCTAGTGCAG | 9620 fluorescence intensity (a.u.)
CGATCACCATCAACACAAGCTATATCTCGATCGATCGCCACGGAGTCACCTAGTGCAG | 8060 fluorescence intensity (a.u.)
GGGCTGCCTCCATCGTCATCGATCCATCTCCGTATCTCTCCGGAGTCACCTAGTGCAG | 11700 fluorescence intensity (a.u.)
CCCGGCCTTGTCCTCCGTGCTCCGCGACGGCCGCTTCCCGCGGAGTCACCTAGTGCAG | 9710 fluorescence intensity (a.u.)
GTCCCGTCGCAATCATGTTAACCTCATCCTCATTCGTCACCGGAGTCACCTAGTGCAG | 15900 fluorescence intensity (a.u.)
ATCGCCAGCCTGACCTGCTGCCCGCACCCAAAAATATCCCCGGAGTCACCTAGTGCAG | 8200 fluorescence intensity (a.u.)

Sequence | binding signal
TTCATCGTGCTTACGCCCACCTACGGCCTCGACTTCTTCCCGGAGTCACCTAGTGCAG | 12600 fluorescence intensity (a.u.)
CATTTTCCGTTTTCGTGTCATCTTTATCAACATATGCACGCGGAGTCACCTAGTGCAG | 9060 fluorescence intensity (a.u.)
ATACATTACAAAAACCATGTTATGTCTTTCTCTTTCAATCCGGAGTCACCTAGTGCAG | 8530 fluorescence intensity (a.u.)
TCGCCCTACCGCCGTCGTCGCTGTCCCGCTGGCCGCTGCTCGGAGTCACCTAGTGCAG | 10800 fluorescence intensity (a.u.)
CCTTAGGTTGAGCATATACTCATTTTTAGTGCATCTTTTACGGAGTCACCTAGTGCAG | 11600 fluorescence intensity (a.u.)
ATATATATATATATATATATATATATATTAATGAATCGCTCGGAGTCACCTAGTGCAG | 9340 fluorescence intensity (a.u.)
TTCATATTTTCACCGTTTGGGTAGAGTGGTGGTGGGGTGTCGGAGTCACCTAGTGCAG | 10400 fluorescence intensity (a.u.)
AGAGATGGTAGTGGTAAAGCGGAGGAGGGGTGGGGTGTTGCGGAGTCACCTAGTGCAG | 16700 fluorescence intensity (a.u.)
GTACACACTCTTGCATAGTGATCACAATGTTATATTCTTTCGGAGTCACCTAGTGCAG | 8060 fluorescence intensity (a.u.)
GTTAATGAACCGTTCCGTTTTCCGTGTTACTGTAGCGCGCCGGAGTCACCTAGTGCAG | 8220 fluorescence intensity (a.u.)
TCTGCATGCCTCCGATTGCCTTCTCATGTTGATGTGAACACGGAGTCACCTAGTGCAG | 8360 fluorescence intensity (a.u.)
TGTGTTATGCTTGTATGTTGAGCTTTATAGTTCCTACTAACGGAGTCACCTAGTGCAG | 8320 fluorescence intensity (a.u.)
AACTAGCTGCCCTTCCCTTGCATCCTATTCCTTCCCTGCACGGAGTCACCTAGTGCAG | 8250 fluorescence intensity (a.u.)
AACACTTATTTCACACGTGGATTGTGCGTTTATGCTTTGACGGAGTCACCTAGTGCAG | 12300 fluorescence intensity (a.u.)
AATTGAATTCATGATTTCCTTGGTTGGTCTGTCACATTATCGGAGTCACCTAGTGCAG | 8200 fluorescence intensity (a.u.)
TACATGTCTTAGAGCTACACATCTCTGATTTTTTTTTACACGGAGTCACCTAGTGCAG | 8950 fluorescence intensity (a.u.)
GTTGCAATGCTGGTTAGTTTGACTTCTCACTTTAAGAATTCGGAGTCACCTAGTGCAG | 9010 fluorescence intensity (a.u.)
AGGATTATCTCGTTACATGTTCTTTCGTTCTCGTGTTGCACGGAGTCACCTAGTGCAG | 9770 fluorescence intensity (a.u.)
TGGCTTCGTACGTGTACCCGTCTGCTGCGATGTGAGGATCCGGAGTCACCTAGTGCAG | 10000 fluorescence intensity (a.u.)
CTGAATCCCGCCCGGTGTTTGAGTGCCTTCGCCTATGCTGCGGAGTCACCTAGTGCAG | 8250 fluorescence intensity (a.u.)
CTACTATTTGCATATCTTATCCGTTGCAGGGTCAAACTGACGGAGTCACCTAGTGCAG | 8280 fluorescence intensity (a.u.)

4 entries from above, in markdown:

| Sequence | binding signal |
| --- | --- |
| TTCATCGTGCTTACGCCCACCTACGGCCTCGACTTCTTCCCGGAGTCACCTAGTGCAG | 12600 fluorescence intensity (a.u.) |
| ATACATTACAAAAACCATGTTATGTCTTTCTCTTTCAATCCGGAGTCACCTAGTGCAG | 8530 fluorescence intensity (a.u.) |
| CCTTAGGTTGAGCATATACTCATTTTTAGTGCATCTTTTACGGAGTCACCTAGTGCAG | 11600 fluorescence intensity (a.u.) |
| GTTAATGAACCGTTCCGTTTTCCGTGTTACTGTAGCGCGCCGGAGTCACCTAGTGCAG | 8220 fluorescence intensity (a.u.) |

Reference: paper PMC7819943, “Rice protein-binding microarrays: a tool to detect cis-acting elements near promoter regions in rice”
